Data source: PubChem BioAssay AID493246 (Drosophila RNAi Screening Center, 2011)
The screen tested about 21,000 reagents; this is a random part of those with a known target gene and a result. Of all reagents, 429 (2%) got an active call. 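Values are raw and not normalised between plates; calls rest on per-plate z-scores that were not deposited.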 Unmarked entries are inactive. The record does not give: the amount of reagent, the time to read-out.

Test: 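Genes fly cells need to grow and stay alive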 (primary screen)
System: Drosophila Kc and S2R+ cells
Reagents: long dsRNA against Drosophila genes
Read-out: 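Raw, unnormalised count of remaining cells in each well; per-plate z-scores of cell number underlie the calls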
Direction: Kc cell number and S2R+ cell number: higher = more cells remaining
Rule for the call: 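Counted as a hit if cell number falls by a z-score of at least 3 within its plate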

{"predicted target":"CG18598","amplicon":"DRSC15356","Kc cell number, rep 1":1.47e6,"Kc cell number, rep 2":1.43e6,"S2R+ cell number, rep 1":1.13e6,"S2R+ cell number, rep 2":1.29e6}
{"predicted target":"LanB1","amplicon":"DRSC03360","Kc cell number, rep 1":1.35e6,"Kc cell number, rep 2":1.39e6,"S2R+ cell number, rep 1":5.48e5,"S2R+ cell number, rep 2":5.80e5}
{"predicted target":"CG10638","amplicon":"DRSC09762","Kc cell number, rep 1":1.79e6,"Kc cell number, rep 2":1.76e6,"S2R+ cell number, rep 1":1.40e6,"S2R+ cell number, rep 2":1.57e6}
{"predicted target":"CG32188","amplicon":"DRSC09510","Kc cell number, rep 1":1.48e6,"Kc cell number, rep 2":1.57e6,"S2R+ cell number, rep 1":1.15e6,"S2R+ cell number, rep 2":1.37e6}
{"predicted target":"Os-C","amplicon":"DRSC16778","Kc cell number, rep 1":1.40e6,"Kc cell number, rep 2":1.39e6,"S2R+ cell number, rep 1":1.29e6,"S2R+ cell number, rep 2":1.38e6}

2 neighbouring reagents from above, quoted:
{"predicted target":"CG10638","amplicon":"DRSC09762","Kc cell number, rep 1":1.79e6,"Kc cell number, rep 2":1.76e6,"S2R+ cell number, rep 1":1.40e6,"S2R+ cell number, rep 2":1.57e6}
{"predicted target":"CG32188","amplicon":"DRSC09510","Kc cell number, rep 1":1.48e6,"Kc cell number, rep 2":1.57e6,"S2R+ cell number, rep 1":1.15e6,"S2R+ cell number, rep 2":1.37e6}

Further results:
{"predicted target":"blo","amplicon":"DRSC05937","Kc cell number, rep 1":1.35e6,"Kc cell number, rep 2":1.43e6,"S2R+ cell number, rep 1":1.04e6,"S2R+ cell number, rep 2":1.04e6}
{"predicted target":"NT1","amplicon":"DRSC08530","Kc cell number, rep 1":1.54e6,"Kc cell number, rep 2":1.44e6,"S2R+ cell number, rep 1":1.17e6,"S2R+ cell number, rep 2":1.23e6}
{"predicted target":"ND-49L","amplicon":"DRSC14437","Kc cell number, rep 1":1.75e6,"Kc cell number, rep 2":1.86e6,"S2R+ cell number, rep 1":1.04e6,"S2R+ cell number, rep 2":1.13e6}
{"predicted target":"KLHL18","amplicon":"DRSC15496","Kc cell number, rep 1":1.43e6,"Kc cell number, rep 2":1.47e6,"S2R+ cell number, rep 1":1.22e6,"S2R+ cell number, rep 2":1.27e6}
{"predicted target":"Sce","amplicon":"DRSC16825","Kc cell number, rep 1":5.06e5,"S2R+ cell number, rep 1":7.30e5}
{"predicted target":"Gp150","amplicon":"DRSC04618","Kc cell number, rep 1":1.50e6,"Kc cell number, rep 2":1.84e6,"S2R+ cell number, rep 1":1.36e6,"S2R+ cell number, rep 2":4.29e5}
{"predicted target":"Takl1","amplicon":"DRSC13443","Kc cell number, rep 1":1.55e6,"Kc cell number, rep 2":1.43e6,"S2R+ cell number, rep 1":1.10e6,"S2R+ cell number, rep 2":1.04e6}
